# Reference: PubChem BioAssay AID504444 (National Center for Advancing Translational Sciences (NCATS), 2011)
# Out of some 360,000 compounds screened, about 7,500 (2.1%) were called active. Inconclusive means that the source gave no clear call. Such entries were picked first, then a sample of the others. The call rests on the fitted dose curve; in most records, active means well fitted inhibition curve with a large enough effect; inconclusive means small, poorly fitted or top-dose-only effect, or effect the other way; inactive means flat fitted curve, though single readings scatter. Potencies beside an inconclusive call are fits to weak or partial responses and may not hold up.
# Assay: Nrf2 qHTS screen for inhibitors; further: nearly all actives have a fitted effect of over 60% in size
# Conditions: A549 ARE-Fluc reporter, luciferase luminescence, 18-24 h; series mostly up to 46 µM
# How it was run: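 Reporter: ARE-Fluc in A549. Exposure: 18-24 h, 37 °C, 5% CO2, 5% FBS OPTI-MEM. Readouts: fluorescent cytotoxicity (CellTiter-Fluor), then luminescent Nrf2 signal after BugLite.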
# Potency means the concentration at half of the fitted maximal effect.
row,SMILES,Potency
1,CCc1c(C)sc(NC(=O)C2CC(c3c(F)cccc3Cl)=NO2)c1C#N (centres undefined),"inconclusive: 29.1 µM [falling, single point]"
2,O=C(COc1ccc(Cl)cc1Cl)N1CCCC1,"inconclusive: 5.8 µM [falling, partial curve]"
3,COc1ccc(C2=Nc3ccccc3N(CC(=O)Nc3cccc(C(C)=O)c3)C(=O)C2)cc1,"inconclusive: 16.4 µM [activator, partial curve]"
4,COc1ccc(CNS(=O)(=O)c2csc(C(N)=O)c2)cc1OC,"inconclusive: 29.1 µM [activator, single point]"
5,CCOC(=O)c1ccc(NC(=O)C(CC)Sc2nncn3c2cc2oc(C)cc23)cc1 (centres undefined),"inconclusive: 29.1 µM [activator, single point]"
6,O=C(Nc1cccc(S(=O)(=O)N2CCCCC2)c1)[C@@H]1CCCN1S(=O)(=O)c1ccccc1C(F)(F)F,"inconclusive: 25.9 µM [falling, single point]"
7,CCC(C)c1ccccc1NC(=O)COC(=O)c1ccc2[nH]c3c(c2c1)CCCC3 (centres undefined),active: 20.6 µM
8,O=C(N/N=C/C(Br)=C/c1ccccc1)c1ccc([N+](=O)[O-])cc1,inactive
9,CCn1c(O)c(N=NC(=O)c2cccs2)c2ccccc21,"inconclusive: 29.1 µM [falling, single point]"
10,Cn1c(CNC(=O)CNS(=O)(=O)c2ccc(Cl)cc2)cc(=O)n(C)c1=O,inactive
11,COC(=O)c1c(-c2cccnc2)csc1NC(=O)c1cc(C)on1,"inconclusive: 0.366 µM [activator, partial curve, poor fit]"
12,Nc1c(S(=O)(=O)c2ccccc2)c2nc3ccccc3nc2n1Cc1ccco1,active: 25.9 µM
13,CN1C[C@@H]2C(c3ccc(Cl)nc3)C3(c4ccc(C#N)cc4)CC2(C3)[C@H]1c1ccccc1 (some centres undefined),inactive
14,CCOC(=O)c1c(C)[nH]c(C(=O)CN2C(=O)NC(C)(c3ccc4ccccc4c3)C2=O)c1C (centres undefined),active: 25.9 µM
15,O=C(Nc1scc(-c2ccc(F)cc2)c1C(=O)O)c1ccco1,inactive
16,CCC(=O)OC1(C(C)=O)CCC2C3CCC4=CC(=O)CCC4(C)C3CCC21C (centres undefined),active: 1.16 µM
17,CCn1nc(C)c(Br)c1-c1nc(-c2ccc(C)cc2)no1,"inconclusive: 0.58 µM [activator, partial curve, poor fit]"
18,Cc1ccc(S(=O)(=O)Cc2ccc(C(=O)OCc3ccccc3)cc2)cc1,inactive
19,CCCNC(=O)c1ccccc1NC(=O)c1cccc(-n2cnnn2)c1,"inconclusive: 29.1 µM [falling, partial curve, poor fit]"
20,CC(=O)O[C@H]1C[C@@]2(C)[C@@H](C[C@@H](O)[C@H]3[C@@]4(C)CC[C@@H](O)[C@@H](C)[C@@H]4CC[C@@]32C)/C1=C(\CCC=C(C)C)C(=O)O,inactive
21,CCC1=[N+](C)CCn2c(C)ccc21,"inconclusive: 29.1 µM [falling, single point]"
22,Nc1nn2cc(-c3ccc(Br)cc3)nc2c2ccccc12,"inconclusive: 18.4 µM [activator, single point]"
23,CC1CC(=O)c2c(cc3c(-c4c(O)cc(O)c5c(O)c6c(cc45)OC(C)CC6=O)c(O)cc(O)c3c2O)O1 (centres undefined),active: 11.6 µM

row,SMILES,Potency
1,COc1cc(/C=C2\N=C(C)OC2=O)cc(OC)c1OC,inactive
2,COc1ccc(Nc2cc(C)c3cc([N+](=O)[O-])ccc3n2)cc1,"inconclusive: 25.9 µM [falling, single point]"
3,COc1ccc(CNC(=O)CN(C)S(=O)(=O)c2ccc3[nH]c4c(c3c2)CCCC4)cc1,"inconclusive: 29.1 µM [falling, single point]"
4,O=C(Cc1cccs1)N1CCN(c2nc(-c3ccc(Cl)cc3)cs2)CC1,active: 18.4 µM
5,COc1ccc(NC(=O)c2cc(S(=O)(=O)N3CCCC3)oc2C)cc1,"inconclusive: 29.1 µM [falling, single point]"
6,COc1ccccc1NC(=O)NCC1CC1(Cl)Cl (centres undefined),"inconclusive: 7.31 µM [activator, partial curve, poor fit]"
7,CCCCCCn1c(N2CCN(c3ccccc3)CC2)nc2c1c(=O)n(C)c(=O)n2C,active: 23.1 µM
8,COc1ccc(NC(=O)Cc2ccc(NC(=O)N3CCCCc4ccccc43)cc2)c(OC)c1,"inconclusive: 18.4 µM [falling, single point]"
9,O=C(N/N=C/c1cccc2ccccc12)c1cc2ccccc2o1,"inconclusive: 29.1 µM [falling, single point]"
10,O=C1NC2(CCCCC2)C(=O)N1/N=C/c1ccc(O)cc1O,"inconclusive: 23.1 µM [activator, partial curve]"
11,COc1ccc(Cc2nc3ccc(C(=O)NCCCSC)cc3o2)cc1OC,"inconclusive: 13 µM [activator, single point]"
12,O=C(Nc1cccc(Cl)c1)c1ccc2c(c1)SC1=NS(=O)(=O)CCN12,"inconclusive: 2.91 µM [falling, partial curve]"
13,Cc1nc(SCC(=O)NCc2ccco2)[nH]c(=O)c1C,"inconclusive: 9.2 µM [falling, partial curve, poor fit]"
14,Cc1ccc(S(=O)(=O)Nc2ccc3ccccc3c2)cc1,inactive
15,COC(=O)c1cccc(NC(=O)C2COc3ccccc3O2)c1 (centres undefined),"inconclusive: 2 µM [activator, full curve]"
16,O=C(Nc1ccccc1F)c1cc(S(=O)(=O)N2CCOCC2)cs1,inactive
17,Cc1cn2c(=O)c(S(=O)(=O)NCCc3ccc(Cl)cc3)c(C)nc2s1,inactive
18,CC(=O)c1cn(CCOc2ccccc2C)c2ccccc12,active: 4.61 µM
19,CCOC(=O)c1c(C)[nH]c(N=Nc2ccc(OC)cc2)c1C,"inconclusive: 14.6 µM [activator, partial curve, poor fit]"
20,CC(C)CNC(=S)N1CCN(c2nc3ccccc3s2)CC1,"inconclusive: 8.2 µM [falling, partial curve, poor fit]"
21,CCNc1nc(N)c(C(=O)C23CC4CC(CC(C4)C2)C3)s1,"inconclusive: 16.4 µM [falling, partial curve]"
22,COc1cccc(/C=C/C(=O)OCC(=O)N2CCN(c3ccccc3)CC2)c1,inactive
23,C=CCn1c(C)c(C(C)=O)c(N2CCN(c3ccccc3)CC2)nc1=S,"inconclusive: 25.9 µM [falling, single point]"

row,SMILES,Potency
1,CCc1ccc(NC(=O)C2CCCN2S(=O)(=O)c2cccc3nsnc23)cc1 (centres undefined),inactive
2,Cc1cccc(NC(=O)/C(C#N)=C/c2cccc([N+](=O)[O-])c2)n1,"inconclusive: 29.1 µM [falling, single point]"
3,O=C(COc1ccc(Cl)cc1)Nc1ccc(Cl)cn1,"inconclusive: 14.6 µM [activator, partial curve, poor fit]"
4,Cc1nc2ccccc2n1CC(=O)OCC(=O)NC1CC1,"inconclusive: 29.1 µM [activator, single point]"
5,CCc1ccccc1N1CC(c2nc3ccccc3n2CCC2CCCCC2)CC1=O (centres undefined),"inconclusive: 29.1 µM [falling, single point]"
6,O=[N+]([O-])/C=C\c1ccc(N2CCOCC2)cc1,"inconclusive: 29.1 µM [falling, single point]"
7,O=C(NCc1nnc(SCc2ccc(F)cc2)n1-c1ccc(F)cc1)C12CC3CC(CC(C3)C1)C2,"inconclusive: 29.1 µM [falling, single point]"
8,CCOc1cc(/C=N/NC(=O)c2cc(C3CC3)[nH]n2)ccc1O,"inconclusive: 18.4 µM [activator, single point]"
9,COc1ccc2c(c1)[C@H]1[C@H](CO2)[C@H](c2ccccc2)[C@]2(C)C(=O)N(CC3CCCO3)CC(=O)N12 (some centres undefined),"inconclusive: 18.4 µM [activator, single point]"
10,O=C(CSc1nnc(SCc2ccccc2)s1)N/N=C/C=C\c1ccco1,inactive
11,CCCCN(C(=O)CCC(=O)O)C1CC(=O)N(c2ccc(OCCC)cc2)C1=O (centres undefined),"inconclusive: 29.1 µM [activator, single point]"
12,c1ccc(-c2noc(-c3ccc4ccccc4c3)n2)cc1,"inconclusive: 0.0517 µM [activator, full curve, poor fit]"
13,COc1ccc(CCNC(=S)Nc2ccc(C(C)C)cc2)cc1,inactive
14,COc1ccc(CC(=O)Nc2cccc3ccccc23)cc1OC,"inconclusive: 18.4 µM [falling, single point]"
15,Nc1c(C(=O)NCc2ccco2)nnn1-c1ccccc1,"inconclusive: 20.6 µM [activator, single point]"
16,COC(=O)c1cccc(NC(=O)c2ccc(OC)c(Cl)c2)c1,"inconclusive: 13 µM [falling, partial curve, poor fit]"
17,Cc1ccc(-n2nc(C)c(C(=O)NCCCN3CCN(c4ccccc4F)CC3)c2-n2cccc2)cc1,"inconclusive: 18.4 µM [falling, single point]"
18,Cn1c(=O)c2c(nc(SCCN3CCOCC3)n2Cc2ccccc2Cl)n(C)c1=O,"inconclusive: 2.91 µM [falling, full curve]"
19,CCC(C)(C)NC(=O)c1ccc2c(c1)OCCO2,"inconclusive: 18.4 µM [activator, single point]"
20,COc1ccc(C(=O)N2CCN(Cc3cc(OC)c(O)c(OC)c3)CC2)cc1OC,inactive
21,CCNc1oc(COc2ccccc2F)nc1C#N,"inconclusive: 7.31 µM [activator, partial curve]"
22,CCn1c(SCC(=O)Nc2ccc(OC)cc2OC)nc2nc3c(cc2c1=O)COC(C)(C)C3,inactive
23,O=C(Nc1cccc(Cl)c1)C1=Cc2cc(Cl)ccc2OC1,"inconclusive: 10.3 µM [falling, single point]"

# Fetched by compound from the list above (four):
row,SMILES,Potency
14,COc1ccc(CC(=O)Nc2cccc3ccccc23)cc1OC,"inconclusive: 18.4 µM [falling, single point]"
19,CCC(C)(C)NC(=O)c1ccc2c(c1)OCCO2,"inconclusive: 18.4 µM [activator, single point]"
21,CCNc1oc(COc2ccccc2F)nc1C#N,"inconclusive: 7.31 µM [activator, partial curve]"
8,CCOc1cc(/C=N/NC(=O)c2cc(C3CC3)[nH]n2)ccc1O,"inconclusive: 18.4 µM [activator, single point]"
